Reference: US7119189B2, “Metabotropic GABA [B] receptors, receptor-specific ligands and their uses” (Novartis AG, priority 1997, dated 2006)
At least one compound was matched to its structure with a doubt left.

By UniProt entry, the sequences of proteins in these tests, tags left out. Residues count along the entry.
UniProt Q9Z0U4, 20-960: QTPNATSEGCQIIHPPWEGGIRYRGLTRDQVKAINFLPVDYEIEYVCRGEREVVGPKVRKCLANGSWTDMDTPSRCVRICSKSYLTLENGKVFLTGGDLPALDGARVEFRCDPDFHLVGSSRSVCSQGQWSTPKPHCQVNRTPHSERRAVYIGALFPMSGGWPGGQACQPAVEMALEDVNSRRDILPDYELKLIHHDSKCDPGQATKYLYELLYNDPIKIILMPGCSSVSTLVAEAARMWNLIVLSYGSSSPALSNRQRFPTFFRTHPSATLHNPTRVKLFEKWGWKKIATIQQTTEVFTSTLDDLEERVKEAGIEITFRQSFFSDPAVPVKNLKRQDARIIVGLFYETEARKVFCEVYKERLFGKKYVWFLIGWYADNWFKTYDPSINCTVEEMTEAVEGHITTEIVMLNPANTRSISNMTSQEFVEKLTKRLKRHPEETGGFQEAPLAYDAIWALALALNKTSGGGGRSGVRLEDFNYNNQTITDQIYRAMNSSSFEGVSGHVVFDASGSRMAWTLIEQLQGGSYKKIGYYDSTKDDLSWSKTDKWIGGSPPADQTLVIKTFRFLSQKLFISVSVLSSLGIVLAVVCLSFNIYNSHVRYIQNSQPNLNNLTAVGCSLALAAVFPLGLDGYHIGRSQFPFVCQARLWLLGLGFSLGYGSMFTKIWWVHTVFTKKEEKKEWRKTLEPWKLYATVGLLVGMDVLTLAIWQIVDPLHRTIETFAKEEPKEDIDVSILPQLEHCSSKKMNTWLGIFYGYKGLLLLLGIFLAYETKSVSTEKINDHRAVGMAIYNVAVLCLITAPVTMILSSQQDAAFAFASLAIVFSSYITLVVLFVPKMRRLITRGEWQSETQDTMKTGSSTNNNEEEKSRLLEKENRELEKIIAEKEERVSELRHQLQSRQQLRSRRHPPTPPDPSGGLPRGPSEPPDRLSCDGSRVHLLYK

Biological target: T1, GABABR1a (Rattus norvegicus, UniProt Q9Z0U4)
T1 construct: The ability of GABABR1a stably expressed in HEK293 cells to reduce forskolin-stimulated cAMP accumulation is analysed; expressed in transfected cells
Test: Forskolin-stimulated cAMP accumulation in HEK293 cells stably expressing GABABR1a
Type: cell-based
Conditions: 20 μM forskolin
Protocol: HEK293 cells stably expressing GABABR1a are treated with 20 μM forskolin (Fsk) to stimulate cAMP formation (100%). […] Bars represent mean values+S.E.M. of at least three independent experiments performed in quadruplicate.
GABAB receptors are described to inhibit adenylate cyclase activity, stimulate phospholipase A2, activate K^+-channels, inactivate voltage-dependent Ca^2+-channels and to modulate inositol phospholipid hydrolysis. As GABABR1a and -b have identical sequence in all domains predicted to be intracellular they are expected to be able to couple to the same effector systems. […] The ability of GABABR1a stably expressed in HEK293 cells to reduce forskolin-stimulated cAMP accumulation is analysed (FIG. 5). We chose concentrations of forskolin and L-baclofen that should produce a maximal effect.

With `C=C[C@@]1(C)CC(=O)[C@]2(O)[C@@]3(C)[C@@H](O)CCC(C)(C)[C@@H]3[C@H](O)[C@H](OC(C)=O)[C@@]2(C)O1` [Forskolin] the “stimulation of cAMP levels over basal” value was “more than ten times over the basal level”.
